Results are given in words; binding and its absence hold for the method and conditions named. Binding seen in cells or lysates may run through a third protein. Some binding calls cover weakened binding; strength is not graded here.

Sequences of proteins named here, by UniProt entry; tags and fusion partners are left off.
UniProt P08753: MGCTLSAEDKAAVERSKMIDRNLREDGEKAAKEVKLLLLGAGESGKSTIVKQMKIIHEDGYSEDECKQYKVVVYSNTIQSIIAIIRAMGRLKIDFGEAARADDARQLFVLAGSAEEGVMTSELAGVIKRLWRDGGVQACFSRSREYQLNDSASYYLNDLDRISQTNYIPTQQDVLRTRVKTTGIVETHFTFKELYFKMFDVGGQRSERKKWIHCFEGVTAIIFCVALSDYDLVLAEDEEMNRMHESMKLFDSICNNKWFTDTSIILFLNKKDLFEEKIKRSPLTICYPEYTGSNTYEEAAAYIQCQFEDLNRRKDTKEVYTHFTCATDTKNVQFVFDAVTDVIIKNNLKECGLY

This assay addresses GST-Gαi3 preloaded with GDP (inactive) (rat) (UniProt P08753). The assay is described as follows: competition in GST pulldown, KB-752 varied, His-DAPLE-CT fixed (FIG. 10A).

On to SRVTWYDFLMEDTKSR [KB-752 synthetic GEF peptide], for which the binding entry is listed as “binds”.

These data come from patent US20160362464A1.
